Results from patent US9260461B2, “Water-soluble derivatives and prodrugs of acacetin and methods of making and using thereof” (Versitech Limited, priority 2014, dated 2016).
Residue numbers refer to the chain shown, from its start. At least one compound was matched to its structure with a doubt left.

The chains behind the UniProt entries cited, without tags or fusion partners.
UniProt P22460, whole entry: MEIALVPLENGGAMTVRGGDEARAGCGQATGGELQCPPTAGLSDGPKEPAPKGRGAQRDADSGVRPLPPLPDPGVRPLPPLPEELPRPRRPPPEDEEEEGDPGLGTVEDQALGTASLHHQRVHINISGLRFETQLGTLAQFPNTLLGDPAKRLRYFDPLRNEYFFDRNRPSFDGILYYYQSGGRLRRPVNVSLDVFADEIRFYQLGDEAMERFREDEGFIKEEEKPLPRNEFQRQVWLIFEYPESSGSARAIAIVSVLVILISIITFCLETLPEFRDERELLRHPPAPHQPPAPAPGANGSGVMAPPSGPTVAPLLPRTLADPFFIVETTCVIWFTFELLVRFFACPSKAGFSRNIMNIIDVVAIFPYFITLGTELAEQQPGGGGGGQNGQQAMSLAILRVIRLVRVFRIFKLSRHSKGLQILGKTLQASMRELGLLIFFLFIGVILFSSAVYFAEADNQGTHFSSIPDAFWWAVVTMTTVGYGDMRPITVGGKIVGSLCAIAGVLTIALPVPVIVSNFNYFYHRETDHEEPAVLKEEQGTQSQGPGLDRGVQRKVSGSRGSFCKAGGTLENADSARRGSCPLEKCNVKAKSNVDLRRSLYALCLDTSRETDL

Legend:
[1] = biological target: T1, Kv1.5 current (hKV1.5 gene expressed in HEK 293 cells) (Homo sapiens, UniProt P22460); experiment: Whole-cell patch-clamp, Kv1.5 current in HEK 293 cells; assay type: cell-based; details: 10 μM, representative cells
T1 construct: expressed in transfected cells
Description: (§1) HEK 293 cell line stably expressing the hKV1.5 gene (Wu et al., 2011) or hKv4.3 gene (Wu et al., 2013) was maintained in Dulbecco's modified eagle's medium (DMEM, Invitrogen, Hong Kong) supplemented with 10% fetal bovine serum and 400 μg/mL G418 in a 5% CO2 incubator. Cells were seeded on a glass cover slip for electrophysiology recording.
(§2) Ionic currents in HEK 293 cell lines and rat atrial myocytes were measured by the standard whole-cell patch-clamp technique using a standard pipette and bath solution with an EPC-10 amplifier and Pulse software (HEKA, Lambrecht, Germany). A 3M KCl-agar salt bridge was used as the reference electrode. The current signal was sampled at 5 kHz, recorded and stored in the hard disk of an IBM compatible computer. All experiments were conducted at room temperature (22-23° C.).
(§3) However, Kv1.5 current (FIG. 3D), Kv4.3 current (FIG. 3E) or IKACh (FIG. 3F) was inhibited by 10 μM acacetin in representative cells consistent with experimental reports.

[2] = biological target: T2, Kv4.3 current (hKv4.3 gene expressed in HEK 293 cells) (Homo sapiens, UniProt Q9UK17); experiment: Whole-cell patch-clamp, Kv4.3 current in HEK 293 cells; assay type: cell-based; details: 10 μM, representative cells
T2 construct: expressed in transfected cells
T2 sequence (Q9UK17 1-655): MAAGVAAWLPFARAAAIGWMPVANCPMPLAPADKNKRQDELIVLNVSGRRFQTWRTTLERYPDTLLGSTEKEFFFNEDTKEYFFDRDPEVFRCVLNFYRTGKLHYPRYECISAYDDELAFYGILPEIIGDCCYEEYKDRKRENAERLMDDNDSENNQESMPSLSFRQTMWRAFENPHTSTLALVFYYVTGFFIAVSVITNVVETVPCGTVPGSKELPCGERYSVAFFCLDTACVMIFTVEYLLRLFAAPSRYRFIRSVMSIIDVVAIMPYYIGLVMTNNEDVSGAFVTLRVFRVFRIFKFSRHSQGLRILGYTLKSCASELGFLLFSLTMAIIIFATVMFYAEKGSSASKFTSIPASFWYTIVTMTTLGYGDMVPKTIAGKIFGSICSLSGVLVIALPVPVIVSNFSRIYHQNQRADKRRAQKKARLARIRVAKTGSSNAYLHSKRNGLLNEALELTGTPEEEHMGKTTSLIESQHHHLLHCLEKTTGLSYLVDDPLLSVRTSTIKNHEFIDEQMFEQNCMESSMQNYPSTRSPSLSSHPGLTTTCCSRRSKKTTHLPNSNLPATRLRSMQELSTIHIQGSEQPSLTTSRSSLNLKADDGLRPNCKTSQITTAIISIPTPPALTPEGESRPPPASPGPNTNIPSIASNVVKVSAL
Description: as §1, §2, §3

[3] = biological target: T3, IKACh (Rattus norvegicus, UniProt P48548+P63251); experiment: Whole-cell patch-clamp, IKACh activated by 5 μM carbachol in rat atrial myocytes; assay type: cell-based; details: 10 μM, representative cells
T3 construct: from tissue; host or cells: freshly isolated left atrial myocytes of SD rats
T3 sequence (P63251 1-501): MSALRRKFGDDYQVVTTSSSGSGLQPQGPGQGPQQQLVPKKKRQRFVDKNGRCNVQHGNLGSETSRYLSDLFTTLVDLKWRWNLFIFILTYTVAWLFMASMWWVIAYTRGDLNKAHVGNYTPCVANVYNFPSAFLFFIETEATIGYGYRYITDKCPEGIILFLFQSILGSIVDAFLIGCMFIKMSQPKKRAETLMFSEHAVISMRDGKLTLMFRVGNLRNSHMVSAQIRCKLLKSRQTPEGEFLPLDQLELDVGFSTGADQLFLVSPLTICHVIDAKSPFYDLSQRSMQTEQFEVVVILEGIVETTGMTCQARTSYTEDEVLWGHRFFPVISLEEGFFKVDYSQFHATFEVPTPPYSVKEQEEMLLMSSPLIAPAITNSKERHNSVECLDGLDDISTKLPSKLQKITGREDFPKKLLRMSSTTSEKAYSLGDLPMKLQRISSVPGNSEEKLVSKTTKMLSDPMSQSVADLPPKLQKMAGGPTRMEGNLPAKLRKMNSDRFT
T3 sequence (P48548 1-419): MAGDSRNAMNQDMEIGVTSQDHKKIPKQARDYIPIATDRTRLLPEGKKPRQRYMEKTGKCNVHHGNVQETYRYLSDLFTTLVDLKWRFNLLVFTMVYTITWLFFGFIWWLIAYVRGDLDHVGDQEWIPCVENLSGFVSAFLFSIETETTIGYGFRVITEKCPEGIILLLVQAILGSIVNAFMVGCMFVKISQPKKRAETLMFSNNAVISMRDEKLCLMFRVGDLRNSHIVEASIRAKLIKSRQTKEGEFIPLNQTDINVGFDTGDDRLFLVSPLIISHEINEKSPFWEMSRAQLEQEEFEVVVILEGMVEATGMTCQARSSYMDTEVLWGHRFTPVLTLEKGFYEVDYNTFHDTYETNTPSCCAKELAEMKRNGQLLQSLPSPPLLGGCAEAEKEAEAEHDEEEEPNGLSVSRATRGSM
Description: Rat atrial myocytes were prepared with the procedure described previously (Li et al., 2002) with a slight modification. Briefly, After SD rats (250-300 g) were anesthetized with pentobarbital (30 mg/kg i.p.), the heart was mounted to a Langendorff heart perfusion apparatus via the aorta and perfused with HEPES-buffered Tyrode's solution at 37° C. gassed with 100% 02 for 5 min. The heart was perfused with Ca^2+-free Tyrode's solution for 5-8 min, followed by Ca^2+-free Tyrode's solution containing 0.06% collagenase (Type II, Worthington Biochemical, Lakewood, N.J., USA) and 0.1% bovine serum albumin (Sigma). When the heart became softened the left atrium was excised and placed in a high-K storage medium at room temperature for 2 h, and then used for electrophysiological recording (Li et al., 2002).
as §2, with “C.). […]” for “C.).”

[4] = system: infarct area induced by ischemia-reperfusion injury; experiment: Myocardial infarct size (TTC staining) in isolated rat hearts with ischemia-reperfusion; details: 0.3, 1 and 3 μM, concentration-dependent; P<0.01 vs. vehicle
[5] = system: caspase-3; experiment: Western blot, ischemia/reperfused myocardium: caspase-3; design: species or system rat; details: 0.3, 1 and 3 μM, concentration-dependent; P<0.05 or P<0.01 vs. vehicle
[6] = system: Bax; experiment: Western blot, ischemia/reperfused myocardium: Bax; design: species or system rat; details: 0.3, 1 and 3 μM, concentration-dependent; P<0.05 or P<0.01 vs. vehicle
[7] = system: Bcl-2; experiment: Western blot, ischemia/reperfused myocardium: Bcl-2; design: species or system rat; details: 0.3, 1 and 3 μM, concentration-dependent; P<0.05 or P<0.01 vs. vehicle
[8] = system: LC3B I/II; experiment: Western blot, ischemia/reperfused myocardium: LC3B I/II; design: species or system rat; details: concentration-dependent
[9] = system: Beclin 1; experiment: Western blot, ischemia/reperfused myocardium: Beclin 1; design: species or system rat; details: concentration-dependent
[10] = system: superoxide dismutase 2 (SOD-2); experiment: Western blot, ischemia/reperfused myocardium: SOD-2; design: species or system rat; details: concentration-dependent
[11] = system: toll-like receptor-4 (TLR-4); experiment: Western blot, rat left ventricles with ischemia-reperfusion injury: TLR-4; details: 0.3, 1 and 3 μM, concentration-dependent
[12] = system: interleukin-6 (IL-6); experiment: Western blot, rat left ventricles with ischemia-reperfusion injury: IL-6; details: 0.3, 1 and 3 μM, concentration-dependent
[13] = system: tumor necrosis factor-α (TNF-α); experiment: Western blot, rat left ventricles with ischemia-reperfusion injury: TNF-α; details: 0.3, 1 and 3 μM, concentration-dependent
[14] = biological target: atrial IKur (Homo sapiens, UniProt P22460); details: cited from earlier work
[15] = biological target: T4, atrial IKACh (Homo sapiens, UniProt P48544+P48549); details: cited from earlier work
T4 sequence (P48549 1-501): T3 sequence (P63251 1-501) with G32D, V295I, S396T, P481A, T482A
T4 sequence (P48544 1-419): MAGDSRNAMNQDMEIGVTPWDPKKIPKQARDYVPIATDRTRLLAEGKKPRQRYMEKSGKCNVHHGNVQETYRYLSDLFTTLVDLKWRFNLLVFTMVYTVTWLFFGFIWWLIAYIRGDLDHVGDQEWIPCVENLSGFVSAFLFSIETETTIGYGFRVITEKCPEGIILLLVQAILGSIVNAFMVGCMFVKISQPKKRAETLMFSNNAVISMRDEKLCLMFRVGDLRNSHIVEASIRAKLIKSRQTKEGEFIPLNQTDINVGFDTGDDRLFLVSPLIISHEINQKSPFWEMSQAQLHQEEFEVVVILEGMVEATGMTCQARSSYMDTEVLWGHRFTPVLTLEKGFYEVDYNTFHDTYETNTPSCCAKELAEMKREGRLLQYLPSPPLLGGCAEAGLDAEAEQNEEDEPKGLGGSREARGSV

[16] = biological target: T5, atrial Ito (Homo sapiens, UniProt Q9UK17); details: cited from earlier work
T5 sequence (Q9UK17 1-655): T2 sequence (Q9UK17 1-655)
T5 sequence (Q9NS61 1-270 partner): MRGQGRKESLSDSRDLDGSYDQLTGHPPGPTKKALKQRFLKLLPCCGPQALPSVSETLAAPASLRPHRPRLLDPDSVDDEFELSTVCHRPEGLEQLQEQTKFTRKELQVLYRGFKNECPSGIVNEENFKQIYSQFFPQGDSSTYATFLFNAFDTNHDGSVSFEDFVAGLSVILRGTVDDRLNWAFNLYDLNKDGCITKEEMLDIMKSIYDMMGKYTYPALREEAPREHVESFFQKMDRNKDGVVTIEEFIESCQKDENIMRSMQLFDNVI

[17] = system: experimental atrial fibrillation; details: anesthetized canines, duodenal administration; cited from earlier work

COc1ccc(-c2cc(=O)c3c(O)cc(O)cc3o2)cc1 [acacetin]
effect on Kv1.5 current [1]: inhibited
effect on Kv4.3 current [2]: inhibited
effect on IKACh [3]: inhibited
mean percentage value of the infarct area [4]: significantly decreased
expression of caspase-3 [5]: decreased
expression of Bax [6]: decreased
expression of Bcl-2 [7]: increased
increase of LC3B I/II protein level (autophagy) [8]: reversed
increase of beclin 1 protein level (autophagy) [9]: reversed
mean relative level of SOD-2 [10]: upregulated
expression of TLR-4 [11]: reduced
expression of IL-6 [12]: reduced
expression of TNF-α [13]: reduced
effect on atrial IKur [14]: inhibits
effect on atrial IKACh [15]: inhibits
effect on atrial Ito [16]: inhibits
induction of experimental atrial fibrillation [17]: prevents
